# Out of some 400,000 compounds screened, about 3,700 (0.93%) were called active. Inconclusive means that the source gave no clear call. Such entries were picked first, then a sample of the others. The call rests on the fitted dose curve; in most records, active means well fitted inhibition curve with a large enough effect; inconclusive means small, poorly fitted or top-dose-only effect, or another doubt; inactive means no such curve, though single readings can be large or run the other way. Potencies beside an inconclusive call are fits to weak or partial responses and may not hold up.
# Amino acid sequences for entries named in this document (tags omitted). A change or cut given only in a name is not applied to a line headed by its entry.
# UniProt P11473: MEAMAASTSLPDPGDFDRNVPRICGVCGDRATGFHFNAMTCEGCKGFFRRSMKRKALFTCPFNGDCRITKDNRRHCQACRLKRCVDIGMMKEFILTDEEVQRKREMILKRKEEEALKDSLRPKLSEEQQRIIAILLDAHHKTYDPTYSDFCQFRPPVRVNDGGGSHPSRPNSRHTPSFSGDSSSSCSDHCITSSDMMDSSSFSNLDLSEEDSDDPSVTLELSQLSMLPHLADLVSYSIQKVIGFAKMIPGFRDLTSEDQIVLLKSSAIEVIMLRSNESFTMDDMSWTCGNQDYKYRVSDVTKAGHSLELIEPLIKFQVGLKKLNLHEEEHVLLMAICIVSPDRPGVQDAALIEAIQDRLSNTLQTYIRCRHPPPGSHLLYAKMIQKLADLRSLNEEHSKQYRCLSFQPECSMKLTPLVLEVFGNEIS
# Target: Vitamin D3 receptor (Homo sapiens) (UniProt P11473)
# Experiment: Inhibitors of the vitamin D receptor (VDR): qHTS
# Details: VDR-SRC2-3 peptide fluorescence polarization, 2 h; max response, negative = inhibition: stronger effect = lower value
# Summary of the method: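 The screen uses fluorescence polarization to detect compounds that interfere with recruitment of the SRC2-3 coactivator peptide to VDR; plates are read after 2 h at room temperature.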
# On the % scale 0 is the no-effect control and ±100 the full control effect; potency means the concentration at half of the fitted maximal effect.
Compound,"max response, negative = inhibition",Potency
Cc1cccc(N(C(=O)CNC(=O)c2cccs2)C(C(=O)NC2CCCC2)c2ccncc2)c1 (stereo not given),inactive: -3.92%,–
c1ccc2c(c1)CC/C2=N/Nc1nc2ccccc2[nH]1,inactive: -1.62%,–
COc1ccc(S(=O)(=O)N(C)CC(=O)NCCN2CCOCC2)cc1C,–,"inconclusive: 89.1 µM [inhibitor, single point]"
COc1ccc(C(=O)/C=C/c2cccnc2)c(OC)c1,–,"inconclusive: 112 µM [inhibitor, partial curve, poor fit]"
CCN(c1ccc(OC)cc1)S(=O)(=O)c1nnc(NC(=O)c2ccco2)s1,–,"inconclusive: 39.8 µM [inhibitor, single point]"
CC(NC(=O)CCc1nnc(-c2ccccc2)o1)c1ccccc1 (stereo not given),–,"inconclusive: 89.1 µM [inhibitor, partial curve, poor fit]"
CCc1ccc(CN(C(=O)Nc2cccc(Cl)c2)c2ccccn2)cc1,inactive: 8.27%,–
O=[N+]([O-])c1cc([N+](=O)[O-])c2nonc2c1Nc1ccc(O)cc1,–,"inconclusive: 89.1 µM [inhibitor, single point]"
Cc1sc(NC(=S)Nc2ccc(F)cc2)c(C(N)=O)c1C,inactive: 18.7%,–
Cc1nc(OCC(C)C)c2sc3nc4c(cc3c2n1)COC(C)(C)C4,inactive: 15.6%,–
COc1cc(NC(C)CCCNC(C)C)c2ncccc2c1OC (stereo not given),–,"inconclusive: 79.4 µM [inhibitor, partial curve]"
CCOCCCn1c(=N)c(C(=O)NC(C)c2ccccc2)cc2c(=O)n3cccc(C)c3nc21 (stereo not given),inactive: 3.25%,–
COc1ccc(CC(C(=O)Nc2cc(C)ccc2C)/C(N)=N/O)cc1 (stereo not given),–,"inconclusive: 28.2 µM [inhibitor, partial curve, poor fit]"
O=C(O)c1ccccc1Nc1cc(Cl)cc(Cl)c1,–,"inconclusive: 20 µM [inhibitor, partial curve]"
O=S(=O)(c1ccc(Br)cc1)c1nnn2c1nc(NCCc1ccccc1)c1sccc12,inactive: -2.09%,–
CCOC(=O)C1=CN(Cc2ccccc2)CCC1=O,–,"inconclusive: 11.2 µM [inhibitor, full curve, poor fit]"
Cc1ccc(C(=O)/C=C/c2cc(Br)cc(Br)c2O)o1,–,active: 8.91 µM
O=c1c2cc(F)ccc2sn1-c1ccccc1,–,active: 20 µM
NC1=NC(S)C2N=CN=C2N1 (stereo not given),–,"inconclusive: 100 µM [inhibitor, single point]"
O=C(c1cnn(-c2ccccc2)c1)c1cc(F)ccc1O,–,"inconclusive: 89.1 µM [inhibitor, single point]"
C#CCOc1ccc(/C=C2/C(=O)NN(c3ccccc3)C2=O)cc1OC,–,"inconclusive: 79.4 µM [inhibitor, single point]"
O=c1c2ccccc2sn1-c1nccs1,–,active: 3.98 µM
O=[N+]([O-])c1ccc(-c2ccc(/C=N/n3cnnc3)o2)c(Br)c1,–,"inconclusive: 5.62 µM [inhibitor, partial curve, poor fit]"

# Compounds above with bromine:
Compound,"max response, negative = inhibition",Potency
O=S(=O)(c1ccc(Br)cc1)c1nnn2c1nc(NCCc1ccccc1)c1sccc12,inactive: -2.09%,–
Cc1ccc(C(=O)/C=C/c2cc(Br)cc(Br)c2O)o1,–,active: 8.91 µM
O=[N+]([O-])c1ccc(-c2ccc(/C=N/n3cnnc3)o2)c(Br)c1,–,"inconclusive: 5.62 µM [inhibitor, partial curve, poor fit]"

# Next records:

Compound,"max response, negative = inhibition",Potency
C/C(CCC1CC(C)OC1=O)=N/Nc1nc(-c2ccccc2)cs1 (stereo not given),–,active: 44.7 µM
Cc1cccc(N2CCN(C(=O)c3cccn3-c3nnc(N4CCCCC4)s3)CC2)c1C,inactive: -0.954%,–
CCc1cccc(C)c1NC(=O)c1cc(S(=O)(=O)N2CCCCCC2)cn1C,inactive: 13%,–
O=S(=O)(Nc1cc2nc3ccccc3nc2n1Cc1ccccc1)c1ccc(Cl)cc1,–,active: 39.8 µM
CCC1CCCCN1CCCNC(=O)c1ccc2c(c1)NC(=O)CN2C (stereo not given),–,"inconclusive: 100 µM [inhibitor, single point]"
CNCCCCCCCCSc1nc(C(C)C)ccc1C(=O)c1cccs1,–,"inconclusive: 63.1 µM [inhibitor, single point]"
O=C(CNC(=O)c1ccco1)Nc1ccc(S(=O)(=O)N2CCCC2)cc1,–,"inconclusive: 79.4 µM [inhibitor, partial curve]"
Cc1ccc(NC(=O)Cn2c(O)c(N=NS(=O)(=O)c3ccc(C)cc3)c3ccccc32)cc1,–,"inconclusive: 50.1 µM [inhibitor, partial curve, poor fit]"
Cc1ccccc1NC(=O)CSC(N)=O,–,active: 25.1 µM
O=C(C[C@H]1C/C=C\CC[C@@H](Cc2ccc(F)cc2)C(=O)O[C@H](c2ccccc2)CNC1=O)N[C@H](CO)Cc1ccccc1,–,"inconclusive: 89.1 µM [inhibitor, single point]"
O=C(Cc1ccccc1[N+](=O)[O-])NCCCc1ccccc1,–,"inconclusive: 100 µM [inhibitor, single point]"
CCOC(=O)C1=C(C)N(c2ccccc2)C(=O)/C1=C\c1ccc(O)c(OC)c1,–,"inconclusive: 39.8 µM [inhibitor, single point]"
Cc1ccccc1Cn1c(=O)n(C)c(=O)c2sccc21,–,"inconclusive: 79.4 µM [inhibitor, single point]"
Cc1ccc(-c2nc(CS(=O)CC(=O)N3CCN(c4ccc(F)cc4)CC3)c(C)o2)cc1 (stereo not given),–,"inconclusive: 89.1 µM [inhibitor, single point]"
O=C1/C(=C/c2ccc(O)cc2)COc2ccccc21,–,"inconclusive: 79.4 µM [inhibitor, single point]"
CCOC(=O)C1(CCOc2ccccc2)CCN(Cc2cc(OC)ccc2OC)CC1,inactive: -4.01%,–
CC(C)(C)c1cc(NCc2ccccn2)n2ncc(-c3ccc(Cl)cc3)c2n1,–,"inconclusive: 100 µM [inhibitor, single point]"
O=Cc1c(NCCc2ccc(F)cc2)c2ccccc2[nH]c1=O,inactive: -18.8%,–
O=C1ON=C(c2ccccc2)/C1=C\c1ccco1,–,"inconclusive: 100 µM [inhibitor, partial curve, poor fit]"
CCCSc1ncc(Cl)c(C(=O)Nc2scc(-c3ccc(C)cc3)c2C(=O)OCC)n1,inactive: 4.48%,–
COc1cc(/C=N/NC(=O)CCN2CCCCC2)ccc1O,inactive: -10.6%,–
COC(=O)c1ccccc1NC(=O)COC(=O)c1ccccc1N=Nc1ccc(N(C)C)cc1,–,"inconclusive: 100 µM [inhibitor, partial curve, poor fit]"
